# Reference: US4250255A, “Assay method for isoenzyme activity” (Eastman Kodak Company, priority 1977, dated 1981)
# At least one compound was matched to its structure with a doubt left.
# Columns and labels:
# [1] = system: intestinal alkaline phosphatase and liver alkaline phosphatase; assay: Assay for alkaline phosphatase activity (p-nitrophenylphosphate); format: biochemical, chicken (intestinal), beef (liver); conditions: with 0.2 M sodium chloride vs without; 30 mM glycine buffer pH 8.5; FIG. 22
# [2] = system: aspartate aminotransferase (SGOT) isoenzymes; assay: Assay for SGOT isoenzymes; format: biochemical; conditions: 90 mM phosphate buffer, pH 7.4, 30° C.
smiles,measurement,setting,value
"CCCCCCCCCCCCCCCC[n+]1ccccc1 [CP, cetylpyridinium bromide]",discrimination between alkaline phosphatase isoenzymes,[1],significantly accentuates the discrimination between the isoenzymes
same,discrimination between SGOT isoenzymes,[2],did not appear to discriminate between these isoenzymes
